Measured values published in PMC3782497, “Unique Structure and Dynamics of the EphA5 Ligand Binding Domain Mediate Its Binding Specificity as Revealed by X-ray Crystallography, NMR and MD Simulations” (PLoS ONE, 2013).
Results are given in words; binding and its absence hold for the method and conditions named. Some binding calls cover weakened binding; strength is not graded here. For some of these results: Tags and fused reporters may be left off the sequences shown.

Protein sequences, listed by entry. Tags and fused reporters are not part of them. Residues count along the entry.
UniProt P54757, residues 27-575: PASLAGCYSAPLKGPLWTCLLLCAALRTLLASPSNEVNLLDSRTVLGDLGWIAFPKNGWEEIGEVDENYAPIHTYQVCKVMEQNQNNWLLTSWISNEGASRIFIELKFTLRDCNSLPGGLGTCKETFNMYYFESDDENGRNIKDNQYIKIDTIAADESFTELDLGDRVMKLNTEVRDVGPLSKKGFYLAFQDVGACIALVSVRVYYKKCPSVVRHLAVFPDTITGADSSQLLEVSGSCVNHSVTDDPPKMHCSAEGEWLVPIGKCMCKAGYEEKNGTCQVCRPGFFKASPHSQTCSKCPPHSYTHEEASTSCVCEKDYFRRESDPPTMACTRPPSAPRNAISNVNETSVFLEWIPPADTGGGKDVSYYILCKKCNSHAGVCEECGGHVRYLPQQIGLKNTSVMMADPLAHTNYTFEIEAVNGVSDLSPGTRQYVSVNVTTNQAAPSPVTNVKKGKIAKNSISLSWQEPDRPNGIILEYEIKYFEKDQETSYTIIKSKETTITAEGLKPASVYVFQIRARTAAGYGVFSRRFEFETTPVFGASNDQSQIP
UniProt P54764, residues 20-547: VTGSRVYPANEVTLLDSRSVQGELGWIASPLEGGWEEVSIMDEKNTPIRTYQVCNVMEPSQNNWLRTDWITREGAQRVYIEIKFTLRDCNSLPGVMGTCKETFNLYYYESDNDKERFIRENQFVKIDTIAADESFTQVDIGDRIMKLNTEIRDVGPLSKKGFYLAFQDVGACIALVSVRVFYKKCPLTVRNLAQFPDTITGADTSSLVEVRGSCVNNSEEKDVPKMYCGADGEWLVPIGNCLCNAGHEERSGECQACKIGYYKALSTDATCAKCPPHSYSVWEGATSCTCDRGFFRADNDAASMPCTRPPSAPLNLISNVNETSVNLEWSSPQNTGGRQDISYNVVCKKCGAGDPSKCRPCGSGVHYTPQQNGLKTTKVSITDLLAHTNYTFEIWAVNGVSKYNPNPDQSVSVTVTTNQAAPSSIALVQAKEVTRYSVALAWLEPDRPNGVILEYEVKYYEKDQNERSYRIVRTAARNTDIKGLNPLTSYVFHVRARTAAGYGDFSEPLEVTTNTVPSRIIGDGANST
UniProt P29317, residues 24-537: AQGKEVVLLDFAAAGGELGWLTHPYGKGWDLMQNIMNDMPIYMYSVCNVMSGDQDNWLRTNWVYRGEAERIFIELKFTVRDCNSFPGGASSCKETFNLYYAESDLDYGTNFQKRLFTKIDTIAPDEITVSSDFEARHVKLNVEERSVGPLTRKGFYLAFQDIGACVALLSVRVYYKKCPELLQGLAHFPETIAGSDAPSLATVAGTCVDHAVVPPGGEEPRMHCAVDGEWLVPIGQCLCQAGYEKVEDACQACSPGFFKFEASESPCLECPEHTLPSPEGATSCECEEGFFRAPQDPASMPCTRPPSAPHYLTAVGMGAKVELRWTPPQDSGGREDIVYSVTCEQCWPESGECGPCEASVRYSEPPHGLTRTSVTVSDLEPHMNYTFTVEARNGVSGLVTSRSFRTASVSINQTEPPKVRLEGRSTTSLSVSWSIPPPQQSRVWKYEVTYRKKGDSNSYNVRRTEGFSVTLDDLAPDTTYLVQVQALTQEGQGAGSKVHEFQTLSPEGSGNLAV
UniProt Q15375, residues 28-555: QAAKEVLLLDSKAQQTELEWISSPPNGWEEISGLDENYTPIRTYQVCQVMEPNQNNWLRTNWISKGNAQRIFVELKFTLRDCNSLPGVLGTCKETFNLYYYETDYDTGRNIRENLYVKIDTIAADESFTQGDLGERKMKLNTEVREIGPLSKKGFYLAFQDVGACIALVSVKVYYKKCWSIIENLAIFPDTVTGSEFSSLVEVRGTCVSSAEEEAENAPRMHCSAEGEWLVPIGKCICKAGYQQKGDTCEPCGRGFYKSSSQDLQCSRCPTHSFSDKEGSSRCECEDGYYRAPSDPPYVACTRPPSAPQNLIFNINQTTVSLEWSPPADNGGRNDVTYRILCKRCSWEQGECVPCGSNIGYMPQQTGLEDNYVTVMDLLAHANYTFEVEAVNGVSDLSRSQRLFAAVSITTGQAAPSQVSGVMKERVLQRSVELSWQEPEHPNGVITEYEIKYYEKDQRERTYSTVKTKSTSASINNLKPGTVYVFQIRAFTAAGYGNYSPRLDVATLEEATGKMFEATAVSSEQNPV

Tests used:
rat EphA5 Fc [1] = target: T1, rat EphA5 Fc (rat, UniProt P54757 27-575); assay: ELISA; rat EphA5 Fc (1 µg/mL) held on Protein A-coated wells; 0.6 nM ephrin-A5 AP for 1 hour, with or without WDC; bound AP detected with pNPP
T1 construct: EphA5, rat, Fc fusion; source: bought: R&D Systems

EphA6 Fc = target: T2, EphA6 Fc (UniProt Q9UF33); assay: ELISA; Eph receptor Fc (1 µg/mL) held on Protein A-coated wells; 0.6 nM ephrin-A5 AP (EphA receptors) or 0.2 nM ephrin-B2 AP (EphB receptors) for 1 hour, with or without 100 µM WDC; bound AP detected with pNPP
T2 sequence: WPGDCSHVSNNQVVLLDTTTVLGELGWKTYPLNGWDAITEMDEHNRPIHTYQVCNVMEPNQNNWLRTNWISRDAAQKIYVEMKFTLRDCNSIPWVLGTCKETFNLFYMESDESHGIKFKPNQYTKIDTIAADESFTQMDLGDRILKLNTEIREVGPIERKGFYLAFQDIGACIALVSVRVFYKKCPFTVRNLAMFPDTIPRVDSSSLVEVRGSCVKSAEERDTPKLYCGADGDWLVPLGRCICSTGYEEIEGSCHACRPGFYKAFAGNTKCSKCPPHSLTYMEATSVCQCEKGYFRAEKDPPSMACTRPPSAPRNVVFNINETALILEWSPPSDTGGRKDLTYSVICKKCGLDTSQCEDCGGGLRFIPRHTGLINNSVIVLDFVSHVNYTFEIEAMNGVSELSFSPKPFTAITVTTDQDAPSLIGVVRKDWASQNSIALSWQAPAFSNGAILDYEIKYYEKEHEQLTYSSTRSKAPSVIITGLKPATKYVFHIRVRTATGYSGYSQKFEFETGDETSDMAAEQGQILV

EphA4 Fc = EphA4 Fc (UniProt P54764); assay: as above
rat EphA5 Fc [2] = target: T1, rat EphA5 Fc; assay: as above
EphA2 Fc = EphA2 Fc (UniProt P29317); assay: as above
EphA8 Fc = target: T3, EphA8 Fc (UniProt P29322); assay: as above
T3 sequence: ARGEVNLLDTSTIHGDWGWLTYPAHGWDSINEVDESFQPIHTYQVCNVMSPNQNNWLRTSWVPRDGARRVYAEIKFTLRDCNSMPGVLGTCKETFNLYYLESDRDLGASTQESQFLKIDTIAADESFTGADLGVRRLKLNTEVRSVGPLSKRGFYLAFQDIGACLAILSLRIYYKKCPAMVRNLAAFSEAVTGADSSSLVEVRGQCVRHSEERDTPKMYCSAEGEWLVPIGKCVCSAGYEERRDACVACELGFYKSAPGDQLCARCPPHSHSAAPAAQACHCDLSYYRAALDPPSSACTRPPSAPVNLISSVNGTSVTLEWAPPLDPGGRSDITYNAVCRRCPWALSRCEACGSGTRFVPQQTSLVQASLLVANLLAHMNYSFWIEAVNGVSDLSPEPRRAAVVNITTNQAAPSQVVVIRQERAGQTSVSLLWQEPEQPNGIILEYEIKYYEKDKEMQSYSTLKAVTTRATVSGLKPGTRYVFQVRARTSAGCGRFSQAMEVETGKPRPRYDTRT

EphA7 Fc = EphA7 Fc (UniProt Q15375); assay: as above

Measured: binding

B1: ephrin-A5 alkaline phosphatase (AP) (ligand, UniProt P52803 21-203)
chain: QDPGSKAVADRYAVYWNSSNPRFQRGDYHIDVCINDYLDVFCPHYEDSVPEDKTERYVLYMVNFDGYSACDHTSKGFKRWECNRPHSPNGPLKFSEKFQLFTPFSLGFEFRPGREYFYISSAIPDNGRRSCLKLKVFVRPTNSCMKTIGVHDRVFDVNDKVENSLEPADDTVHESAEPSRGEN
binds: all assays above
